# Test results: the supplement of paper PMC8728848
# Some of the results follow.
# Columns and labels:
# Assay in all cases: glycan array binding signal (z-score within array); higher = stronger binding
# Conditions in all cases: glycan notation: IUPAC condensed, linker removed
# Fuc(a1-2)Gal = target: Fuc(a1-2)Gal
# How it was run: (§1)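 Glycan array data came from 3228 arrays in the Consortium for Functional Glycomics database, and only arrays with an available protein sequence were kept. Glycan names were put into IUPAC-condensed notation, and columns mapping to the same glycan were averaged. The binding signal is a within-array Z-score, averaged across arrays of one protein sequence run at different concentrations or buffers and across linkers. A negative Z-score can be read as non-binding.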
# Fuc(a1-2)Gal(b1-3)GalNAc = target: Fuc(a1-2)Gal(b1-3)GalNAc
# How it was run: as §1
# [1] = target: Fuc(a1-2)Gal(b1-3)GalNAc(a1-3)[Fuc(a1-2)]Gal(b1-4)Glc
# How it was run: as §1
# [2] = target: Fuc(a1-2)Gal(b1-3)GalNAc(a1-3)[Fuc(a1-2)]Gal(b1-4)GlcNAc
# How it was run: as §1
# [3] = target: Fuc(a1-2)Gal(b1-3)GalNAc(b1-3)Gal
# How it was run: as §1
# [4] = target: Fuc(a1-2)Gal(b1-3)GalNAc(b1-3)Gal(a1-4)Gal(b1-4)Glc
# How it was run: as §1
# [5] = target: Fuc(a1-2)Gal(b1-3)GalNAc(b1-4)[Neu5Ac(a2-3)]Gal(b1-4)Glc
# How it was run: as §1
# Fuc(a1-2)Gal(b1-3)GlcNAc = target: Fuc(a1-2)Gal(b1-3)GlcNAc
# How it was run: as §1
# [6] = target: Fuc(a1-2)Gal(b1-3)GlcNAc(b1-2)Man(a1-3)[Fuc(a1-2)Gal(b1-3)GlcNAc(b1-2)Man(a1-6)]Man(b1-4)GlcNAc(b1-4)GlcNAc
# How it was run: as §1
# [7] = target: Fuc(a1-2)Gal(b1-3)GlcNAc(b1-2)Man(a1-3)[Fuc(a1-2)Gal(b1-3)GlcNAc(b1-2)Man(a1-6)]Man(b1-4)GlcNAc(b1-4)[Fuc(a1-6)]GlcNAc
# How it was run: as §1
# [8] = target: Fuc(a1-2)Gal(b1-3)GlcNAc(b1-3)Gal(b1-4)Glc
# How it was run: as §1
# [9] = target: Fuc(a1-2)Gal(b1-3)GlcNAc(b1-3)GalNAc
# How it was run: as §1
# [10] = target: Fuc(a1-2)Gal(b1-3)GlcNAc(b1-3)[Fuc(a1-2)Gal(b1-3)GlcNAc(b1-6)]GalNAc
# How it was run: as §1
# [11] = target: Fuc(a1-2)Gal(b1-3)GlcNAc(b1-3)[Gal(b1-4)GlcNAc(b1-6)]Gal(b1-4)Glc
# How it was run: as §1
# [12] = target: Fuc(a1-2)Gal(b1-3)GlcNAc(b1-3)[Neu5Ac(a2-6)Gal(b1-4)GlcNAc(b1-6)]Gal(b1-4)Glc
# How it was run: as §1
# [13] = target: Fuc(a1-2)Gal(b1-3)GlcNAc6S
# How it was run: as §1
# [14] = target: Fuc(a1-2)Gal(b1-3)[Fuc(a1-4)]GlcNAc
# How it was run: as §1
# [15] = target: Fuc(a1-2)Gal(b1-3)[Fuc(a1-4)]GlcNAc(b1-2)Man(a1-3)[Fuc(a1-2)Gal(b1-3)[Fuc(a1-4)]GlcNAc(b1-2)Man(a1-3)]Man(b1-4)GlcNAc(b1-4)GlcNAc
# How it was run: as §1
# [16] = target: Fuc(a1-2)Gal(b1-3)[Fuc(a1-4)]GlcNAc(b1-2)Man(a1-3)[Fuc(a1-2)Gal(b1-3)[Fuc(a1-4)]GlcNAc(b1-2)Man(a1-6)]Man(b1-4)GlcNAc(b1-4)[Fuc(a1-6)]GlcNAc(b1-4)[Fuc(a1-6)]GlcNAc
# How it was run: as §1
# [17] = target: Fuc(a1-2)Gal(b1-3)[Fuc(a1-4)]GlcNAc(b1-3)[Fuc(a1-3)[Gal(b1-4)]GlcNAc(b1-6)]Gal(b1-4)Glc
# How it was run: as §1
# [18] = target: Fuc(a1-2)Gal(b1-3)[Fuc(a1-4)]GlcNAc(b1-3)[Gal(b1-4)GlcNAc(b1-6)]Gal(b1-4)Glc
# How it was run: as §1
# Fuc(a1-2)Gal(b1-4)Glc = target: Fuc(a1-2)Gal(b1-4)Glc
# How it was run: as §1
# Fuc(a1-2)Gal(b1-4)Glc6S = target: Fuc(a1-2)Gal(b1-4)Glc6S
# How it was run: as §1
# Fuc(a1-2)Gal(b1-4)GlcNAc = target: Fuc(a1-2)Gal(b1-4)GlcNAc
# How it was run: as §1
# [19] = target: Fuc(a1-2)Gal(b1-4)GlcNAc(b1-2)Man
# How it was run: as §1
# [20] = target: Fuc(a1-2)Gal(b1-4)GlcNAc(b1-2)Man(a1-3)[Fuc(a1-2)Gal(b1-4)GlcNAc(b1-2)Man(a1-6)]Man(b1-4)GlcNAc(b1-4)GlcNAc
# How it was run: as §1
# [21] = target: Fuc(a1-2)Gal(b1-4)GlcNAc(b1-2)Man(a1-3)[Fuc(a1-2)Gal(b1-4)GlcNAc(b1-2)Man(a1-6)]Man(b1-4)GlcNAc(b1-4)[Fuc(a1-6)]GlcNAc
# How it was run: as §1
# [22] = target: Fuc(a1-2)Gal(b1-4)GlcNAc(b1-2)[Fuc(a1-2)Gal(b1-4)GlcNAc(b1-4)]Man(a1-3)[Fuc(a1-2)Gal(b1-4)GlcNAc(b1-2)Man(a1-6)]Man(b1-4)GlcNAc(b1-4)GlcNAc
# How it was run: as §1
# [23] = target: Fuc(a1-2)Gal(b1-4)GlcNAc(b1-3)Gal(b1-4)GlcNAc
# How it was run: as §1
# [24] = target: Fuc(a1-2)Gal(b1-4)GlcNAc(b1-3)Gal(b1-4)GlcNAc(b1-2)Man(a1-3)[Fuc(a1-2)Gal(b1-4)GlcNAc(b1-3)Gal(b1-4)GlcNAc(b1-2)Man(a1-6)]Man(b1-4)GlcNAc(b1-4)GlcNAc
# How it was run: as §1
# [25] = target: Fuc(a1-2)Gal(b1-4)GlcNAc(b1-3)Gal(b1-4)GlcNAc(b1-3)Gal(b1-4)GlcNAc
# How it was run: as §1
# [26] = target: Fuc(a1-2)Gal(b1-4)GlcNAc(b1-3)GalNAc
# How it was run: as §1
# [27] = target: Fuc(a1-2)Gal(b1-4)GlcNAc(b1-3)[Fuc(a1-2)Gal(b1-4)GlcNAc(b1-6)]GalNAc
# How it was run: as §1
# [28] = target: Fuc(a1-2)Gal(b1-4)GlcNAc(b1-3)[Fuc(a1-3)[Gal(b1-4)]GlcNAc(b1-6)]Gal(b1-4)Glc
# How it was run: as §1
# [29] = target: Fuc(a1-2)Gal(b1-4)GlcNAc(b1-6)GalNAc
# How it was run: as §1
# [30] = target: Fuc(a1-2)Gal(b1-4)GlcNAc6S
# How it was run: as §1
# [31] = target: Fuc(a1-2)Gal(b1-4)[Fuc(a1-3)]GlcNAc
# How it was run: as §1
# [32] = target: Fuc(a1-2)Gal(b1-4)[Fuc(a1-3)]GlcNAc(b1-2)Man(a1-3)[Fuc(a1-2)Gal(b1-4)[Fuc(a1-3)]GlcNAc(b1-2)Man(a1-6)]Man(b1-4)GlcNAc(b1-4)[Fuc(a1-6)]GlcNAc
# How it was run: as §1
# [33] = target: Fuc(a1-2)Gal(b1-4)[Fuc(a1-3)]GlcNAc(b1-2)[Fuc(a1-2)Gal(b1-4)[Fuc(a1-3)]GlcNAc(b1-4)]Man(a1-3)[Fuc(a1-2)Gal(b1-4)[Fuc(a1-3)]GlcNAc(b1-2)Man(a1-6)]Man(b1-4)GlcNAc(b1-4)GlcNAc
# How it was run: as §1
# [34] = target: Fuc(a1-2)Gal(b1-4)[Fuc(a1-3)]GlcNAc(b1-3)Gal(b1-4)[Fuc(a1-3)]GlcNAc
# How it was run: as §1
# [35] = target: Fuc(a1-2)Gal(b1-4)[Fuc(a1-3)]GlcNAc(b1-3)Gal(b1-4)[Fuc(a1-3)]GlcNAc(b1-3)Gal(b1-4)[Fuc(a1-3)]GlcNAc
# How it was run: as §1
# [36] = target: Fuc(a1-2)Gal(b1-4)[Fuc(a1-3)]GlcNAc(b1-3)GalNAc
# How it was run: as §1
# [37] = target: Fuc(a1-2)Gal(b1-4)[Fuc(a1-3)]GlcNAc(b1-3)[Neu5Ac(a2-6)Gal(b1-4)GlcNAc(b1-6)]Gal(b1-4)Glc
# How it was run: as §1
# [38] = target: Fuc(a1-2)Gal3S(b1-4)GlcNAc
# How it was run: as §1
# [39] = target: Fuc(a1-2)Gal6S(b1-3)GlcNAc
# How it was run: as §1
binder,measurement,setting,value
Nc3LysM-2 (protein) AHVLQARQSVSCDFATAANTGDTCASFAAAWGITEAAFAKLNPGVSCPGNLIAGSEYCVIGTVSTGAPTTTKAATTSTTPPTTTTTTKATTLSTSTTSVSPTGPSPQMPSITSTCNKFYQVQSGDGCWSIEQAQGVSASDFMAWNKAVDAQCDNLWLGYYVCVGVKGGSSPPPTTTTKPASSSAPTPQMPNTVSNCKKFHKVVSGDGCWAIEQAAGISASDFAKWNPYVDAACDNLWLGYYVCIGV,glycan array binding signal (z-score),Fuc(a1-2)Gal,-0.698
same,glycan array binding signal (z-score),Fuc(a1-2)Gal(b1-3)GalNAc,-0.369
same,glycan array binding signal (z-score),[1],0.193
same,glycan array binding signal (z-score),[2],-0.746
same,glycan array binding signal (z-score),[3],0.129
same,glycan array binding signal (z-score),[4],-0.566
same,glycan array binding signal (z-score),[5],0.388
same,glycan array binding signal (z-score),Fuc(a1-2)Gal(b1-3)GlcNAc,0.966
same,glycan array binding signal (z-score),[6],-0.335
same,glycan array binding signal (z-score),[7],1.25
same,glycan array binding signal (z-score),[8],-0.628
same,glycan array binding signal (z-score),[9],0.157
same,glycan array binding signal (z-score),[10],1.55
same,glycan array binding signal (z-score),[11],0.735
same,glycan array binding signal (z-score),[12],-1.69
same,glycan array binding signal (z-score),[13],-1.29
same,glycan array binding signal (z-score),[14],-1.14
same,glycan array binding signal (z-score),[15],0.078
same,glycan array binding signal (z-score),[16],0.307
same,glycan array binding signal (z-score),[17],0.706
same,glycan array binding signal (z-score),[18],-1.06
same,glycan array binding signal (z-score),Fuc(a1-2)Gal(b1-4)Glc,0.288
same,glycan array binding signal (z-score),Fuc(a1-2)Gal(b1-4)Glc6S,0.176
same,glycan array binding signal (z-score),Fuc(a1-2)Gal(b1-4)GlcNAc,0.515
same,glycan array binding signal (z-score),[19],0.135
same,glycan array binding signal (z-score),[20],2.21
same,glycan array binding signal (z-score),[21],0.188
same,glycan array binding signal (z-score),[22],0.669
same,glycan array binding signal (z-score),[23],-0.324
same,glycan array binding signal (z-score),[24],1.23
same,glycan array binding signal (z-score),[25],0.908
same,glycan array binding signal (z-score),[26],-0.881
same,glycan array binding signal (z-score),[27],-0.441
same,glycan array binding signal (z-score),[28],0.1
same,glycan array binding signal (z-score),[29],-1.6
same,glycan array binding signal (z-score),[30],1.84
same,glycan array binding signal (z-score),[31],-0.85
same,glycan array binding signal (z-score),[32],0.791
same,glycan array binding signal (z-score),[33],1.01
same,glycan array binding signal (z-score),[34],-0.75
same,glycan array binding signal (z-score),[35],-0.114
same,glycan array binding signal (z-score),[36],0.948
same,glycan array binding signal (z-score),[37],-0.656
same,glycan array binding signal (z-score),[38],1.14
same,glycan array binding signal (z-score),[39],-0.506

# A second format for part of the listing above.
binder	measurement	setting	value
Nc3LysM-2 (protein) AHVLQARQSVSCDFATAANTGDTCASFAAAWGITEAAFAKLNPGVSCPGNLIAGSEYCVIGTVSTGAPTTTKAATTSTTPPTTTTTTKATTLSTSTTSVSPTGPSPQMPSITSTCNKFYQVQSGDGCWSIEQAQGVSASDFMAWNKAVDAQCDNLWLGYYVCVGVKGGSSPPPTTTTKPASSSAPTPQMPNTVSNCKKFHKVVSGDGCWAIEQAAGISASDFAKWNPYVDAACDNLWLGYYVCIGV	glycan array binding signal (z-score)	[10]	1.55
same	glycan array binding signal (z-score)	[11]	0.735
same	glycan array binding signal (z-score)	[12]	-1.69
